Results on one molecule are retold here after ChEMBL document CHEMBL4840341, “Voatriafricanines A and B, Trimeric Vobasine-Aspidosperma-Aspidosperma Alkaloids from Voacanga africana” (J Nat Prod, 2021).

In this test the test system is Mycobacterium tuberculosis. The test can be described thus: Antimycobacterial activity against Mycobacterium bovis BCG assessed as inhibition of visible mycobacterial growth by broth microdilution method. Type of test: functional. Particulars: variant bovis BCG. A general note: In broth dilution the organism is exposed to a series of concentrations in liquid medium.

Converted amounts (≈) assume the structure as drawn.

One may read the MIC as the least concentration at which growth counts as inhibited. Take `CO[C@H]1/C=C/O[C@@]2(C)Oc3c(C)c(O)c4c(O)c(c(/C=N/N5CCN(C)CC5)c(O)c4c3C2=O)NC(=O)/C(C)=C\C=C\[C@H](C)[C@H](O)[C@@H](C)[C@@H](O)[C@@H](C)[C@H](OC(C)=O)[C@@H]1C` [RIFAMPIN]: the MIC is 0.1 µg/mL (≈ 0.122 µM).
